Data taken from patent US9371393B2, “Class I anti-CEA antibodies and uses thereof” (Immunomedics, Inc., priority 2009, dated 2016).
At least one structure is not confirmed: it was looked up by name or label, or the drawing left a doubt.

Test system: TT human medullary thyroid cell line tumors
Assay: hMN-15 and DTIC in TT medullary thyroid cancer xenografts
Assay type: in vivo, nu/nu mice
Settings: at 7 weeks, DTIC 75 μg/dose, hMN-15 100 μg/dose

CN(C)/N=N/c1[nH]cnc1C(N)=O [DTIC, dacarbazine, reference compound]
mice with no palpable tumor (untreated 0/10): 1/10
mean tumor volume (untreated 1.578+0.959): 0.284+0.197 cm^3
